In PubChem BioAssay AID624297 (National Center for Advancing Translational Sciences (NCATS), 2012):
Hit rate of the full screen: of about 340,000 compounds, about 6,200 (1.8%) were called active. The inconclusive results got no clear call from the source; some entries with a clear call stand among them for comparison. Calls come from the whole dose curve; as a rule, active = well fitted activation curve with a large enough effect; inconclusive = small, poorly fitted or top-dose-only effect; inactive = no such curve, though single readings can be large or run the other way. Where the call is inconclusive, the potency comes from a doubtful curve fit.

Assay: A quantitative high throughput screen for small molecules that induce DNA re-replication in SW480 colon adenocarcinoma cells. For re-replication activation: % of control where 0% means no effect. Note: nearly all actives have a fitted effect of over 55% in size.
Details: Hoechst DNA content imaging, 48 h; re-replication activation: at 46.1 µM (top of the series) unless noted
Outline: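 SW480 cells exposed to compounds for 48 hr at 37 C, 5% CO2, then Hoechst-stained 40 min. Nuclear DNA content imaged by fluorescence scanning (405 nm excitation, 500-530 nm emission); re-replication scored as increased high-intensity nuclei.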
Potency is the fitted concentration of half-maximal effect.

| Compound | Potency | re-replication activation |
| --- | --- | --- |
| N[C@@H](Cc1ccc(F)cc1)C(=O)O | inconclusive: 0.184 µM [activator, single point] |  |
| CCN1CCN(c2ccc(S(=O)(=O)N3CCCCC3)cc2NC(=O)c2cccc(NC(C)=O)c2)CC1 |  | inconclusive: 80.2% [activator] |
| CCCn1c(CNc2ccc(Br)cc2)nc2ccccc21 |  | inconclusive: 84.4% [activator] |
| O=C(COc1ccccc1)N=C1SC2CS(=O)(=O)CC2N1c1ccc(F)cc1 (stereo unspecified) | inconclusive: 29.1 µM [activator, single point] |  |
| COc1cccc2c(C)nc(Nc3nc(CSc4nnc(C)s4)cc(=O)[nH]3)nc12 | inconclusive: 23.1 µM [activator, single point] |  |
| COc1ccc2nc(NC(=O)c3ccccc3[N+](=O)[O-])sc2c1 |  | inactive: 7.5% |
| COc1ccc(N2CC(C(=O)N/N=C/c3cc([N+](=O)[O-])ccc3O)CC2=O)cc1 (stereo unspecified) | inconclusive: 29.1 µM [activator, single point] |  |
| CCOc1ccc(S(=O)(=O)NCc2ccco2)c2ccccc12 | inconclusive: 29.1 µM [activator, single point] |  |
| COCCOc1ccc(C(F)(F)F)cc1NC(=O)CN1C(=O)NC(C)(c2ccc3c(c2)OCO3)C1=O (stereo unspecified) | inconclusive: 29.1 µM [activator, single point] |  |
| CCCOc1ccc(CSC(=N)N)cc1C(=O)OC |  | inactive: -24.7% |
| CCCOc1ccc(/C=N/NC(=S)Nc2ccccc2[N+](=O)[O-])c(O)c1 | inconclusive: 16.4 µM [activator, partial curve, poor fit] |  |
| CCc1ccc([C@H]2C(C(=O)O)=C[C@@H](CC3CCCC3)N2S(=O)(=O)c2ccc(C)cc2)cc1 | inconclusive: 0.517 µM [activator, single point] |  |
| CCCn1nnc(NC(=O)c2ccccc2Br)n1 | active: 5.17 µM |  |
| O=C(CC1S/C(=N/N=C2CCCCCC2)NC1=O)Nc1ccccc1F (stereo unspecified) |  | inactive: 58.3% |
| COc1ccc(NC(=O)CN2C(=O)CC(C)S(=O)(=O)c3ccccc32)cc1 (stereo unspecified) |  | inactive: -15.4% |
| C=Cc1ccc(Cn2c(=O)n(CCCOC)c(=O)c3sccc32)cc1 |  | inactive: 24.5% |
| COc1cccc(C2c3[nH]c4ccccc4c3C[C@H]3C(=O)N(c4ccccc4C(=O)N4CCCC4C(=O)O)C(=O)N23)c1 (stereo partly specified) |  | inactive: -12.1% |
| CCCCn1c(N)c(N(CC(C)C)C(=O)C2CCCN(C(=O)c3ccc(Cl)cc3)C2)c(=O)[nH]c1=O (stereo unspecified) | inconclusive: 9.2 µM [activator, partial curve, poor fit] |  |
| COc1cccc(-c2cc3nc4c(c(NCC(C)(C)CN(C)C)n3n2)CCCC4)c1 | inconclusive: 29.1 µM [activator, single point] |  |
| COc1ccc(NC(=O)c2ccc(NCCCN3CCOCC3)c([N+](=O)[O-])c2)cc1 |  | inactive: -5.05% |
| CCOC(=O)COc1c(C=O)cc(Br)cc1OC | inconclusive: 23.1 µM [activator, partial curve, poor fit] |  |
| N/C(=N\OC(=O)c1ccc2c(c1)OCO2)c1cccc([N+](=O)[O-])c1 |  | inactive: 8.05% |
| CCOc1ccc2oc(C(=O)OCC(=O)NC(=O)NC)c(C)c2c1 |  | inactive: -1.76% |

An excerpt from above in order of SMILES length, ascending.

| Compound | Potency | re-replication activation |
| --- | --- | --- |
| CCOc1ccc(S(=O)(=O)NCc2ccco2)c2ccccc12 | inconclusive: 29.1 µM [activator, single point] |  |
| O=C(COc1ccccc1)N=C1SC2CS(=O)(=O)CC2N1c1ccc(F)cc1 (stereo unspecified) | inconclusive: 29.1 µM [activator, single point] |  |
| COc1cccc2c(C)nc(Nc3nc(CSc4nnc(C)s4)cc(=O)[nH]3)nc12 | inconclusive: 23.1 µM [activator, single point] |  |

Next part

| Compound | Potency | re-replication activation |
| --- | --- | --- |
| COc1cc(NC(=O)C2CCN(c3cnccn3)CC2)cc(OC)c1OC | inconclusive: 2.91 µM [activator, partial curve, poor fit] |  |
| CCC1SC2=NC(C)=C(C(=O)OCC(C)C)C(/C=C/c3ccccc3OC)N2C1=O (stereo unspecified) | inconclusive: 23.1 µM [activator, single point] |  |
| Cc1ccc(C)c(S(=O)(=O)N2CCCC2CNC(=O)C(=O)NCc2ccccc2C)c1 (stereo unspecified) | active: 3.66 µM |  |
| COc1ccc(S(=O)(=O)NCC2CCCN(Cc3ccc(OC)cc3F)C2)cc1 (stereo unspecified) | inconclusive: 15.8 µM [activator, single point] |  |
| O=C(CCNC(=O)C1CCN(S(=O)(=O)c2ccc(F)cc2)CC1)Nc1nccs1 | inconclusive: 29.1 µM [activator, single point] |  |
| Cc1ccc(C(=O)CN2/C(=C(\O)c3ccccc3)C(=O)c3ccccc3S2(=O)=O)c(C)c1 | inconclusive: 10.3 µM [activator, single point] |  |
| c1ccc(CCn2c(SCc3ccccc3)nnc2-c2ccncc2)cc1 |  | inactive: -3.89% [at 9.22 µM] |
| Cc1cc(C)nc(NC(=O)c2c(F)c(F)c(F)c(C(=O)Nc3cc(C)cc(C)n3)c2F)c1 | inconclusive: 29.1 µM [activator, single point] |  |
| Cc1ccc(CC(=O)NCc2ccc(Cl)cc2)cc1 | active: 0.92 µM |  |
| Cc1snc(SCC(=O)N/N=C(\N)COc2ccc(F)cc2)c1C#N |  | inactive: -9.49% |
| O=C(NC1CCCCC1)N1CCN(c2ccc(Cl)cc2)CC1 | inconclusive: 23.1 µM [activator, single point] |  |
| CSc1cccc(N2CC(C(=O)NCCC3=CCCCC3)CC2=O)c1 (stereo unspecified) |  | inactive: -4.36% |
| O=C(N=C1SC2CS(=O)(=O)CC2N1c1ccc(Cl)c(Cl)c1)C1CCCO1 (stereo unspecified) | inconclusive: 29.1 µM [activator, single point] |  |
| Cc1ccc(NC(=O)c2cc(-c3cc(Cl)ccc3O)n[nH]2)cc1C |  | inactive: -9.64% |
| COc1ccc(N=c2oc3cc(O)ccc3cc2C(=O)NCC2CCCO2)c(OC)c1 (stereo unspecified) | inconclusive: 16.4 µM [activator, partial curve, poor fit] |  |
| CN(CC(=O)Nc1ccccc1Br)C(=O)CN1CCN(Cc2cccc(Cl)c2)CC1 |  | inactive: -0.485% |
| Cc1ccc(S(=O)(=O)N2CCC(=O)N(C(COCc3ccccc3)Cc3ccccc3)CC2)cc1 (stereo unspecified) |  | inactive: -0.266% |
| CN(C)S(=O)(=O)c1ccc(C(=O)NCc2cccs2)cc1 |  | inactive: -19.3% |
| Cc1cc(C)n2nc(SCC(=O)N/N=C/c3cccc(Br)c3)nc2n1 | inconclusive: 20.6 µM [activator, single point] |  |
| Cc1cccc2sc(N(CCCN(C)C)C(=O)CCS(=O)(=O)c3ccccc3)nc12 | inconclusive: 6.51 µM [activator, partial curve, poor fit] |  |
| Cc1ccccc1NC(=O)Cn1cccc1 |  | inactive: -1.51% |
| CCCCNC(=S)NNC(=O)c1cccnc1 |  | inactive: -0.0867% |
| CCc1ccc(Nc2nnc(SCC(=O)Nc3cccc(S(=O)(=O)NC4=NCCCCC4)c3)s2)cc1 | inconclusive: 13 µM [activator, partial curve, poor fit] |  |
